Experimental data as given in PMC5496907.
These are yes or no findings as the source states them, for the method shown. In cells and extracts the contact can be indirect. Some results given as binding are weak or reduced against the parent protein; the word gives no strength. Sequences can lack the tags named with a protein.

Target: HA-tagged full-length Cbl (UniProt P22681)
Assay: co-IP; 293T cells co-transfected; whole cell lysates (1% Triton X-100 or 1% NP-40 lysis buffer) IPed with anti-HA affinity resin (HA-Cbl or HA-Cbl TKB domain as bait), Western blot

B1: un-tagged GMRβ (GM-CSF receptor β subunit) (receptor, UniProt P32927 17-897)
chain: WERSLAGAEETIPLQTLRCYNDYTSHITCRWADTQDAQRLVNVTLIRRVNEDLLEPVSCDLSDDMPWSACPHPRCVPRRCVIPCQSFVVTDVDYFSFQPDRPLGTRLTVTLTQHVQPPEPRDLQISTDQDHFLLTWSVALGSPQSHWLSPGDLEFEVVYKRLQDSWEDAAILLSNTSQATLGPEHLMPSSTYVARVRTRLAPGSRLSGRPSKWSPEVCWDSQPGDEAQPQNLECFFDGAAVLSCSWEVRKEVASSVSFGLFYKPSPDAGEEECSPVLREGLGSLHTRHHCQIPVPDPATHGQYIVSVQPRRAEKHIKSSVNIQMAPPSLNVTKDGDSYSLRWETMKMRYEHIDHTFEIQYRKDTATWKDSKTETLQNAHSMALPALEPSTRYWARVRVRTSRTGYNGIWSEWSEARSWDTESVLPMWVLALIVIFLTIAVLLALRFCGIYGYRLRRKWEEKIPNPSKSHLFQNGSAELWPPGSMSAFTSGSPPHQGPWGSRFPELEGVFPVGFGDSEVSPLTIEDPKHVCDPPSGPDTTPAASDLPTEQPPSPQPGPPAASHTPEKQASSFDFNGPYLGPPHSRSLPDILGQPEPPQEGGSQKSPPPGSLEYLCLPAGGQVQLVPLAQAMGPGQAVEVERRPSQGAAGSPSLESGGGPAPPALGPRVGGQDQKDSPVAIPMSSGDTEDPGVASGYVSSADLVFTPNSGASSVSLVPSLGLPSDQTPSLCPGLASGPPGAPGPVKSGFEGYVELPPIEGRSPRSPRNNPVPPEAKSPVLNPGERPADVSPTSPQPEGLLVLQQVGDYCFLPGLGPGPLSLRSKPSSPGPGPEIKNLDQAFQVKKPPGQAVPQVPVIQLFKALKQQDYLSLPPWEVNKPGEVC
In the case of B1, the binding is reported as “binds weakly”.
